The test system of this data set is P. carinii. The data set is described as follows: Protection against P. carinii infection in anti-CD4 treated (immunocompromised) mice, lung impression smear score. Format: in vivo. The note with it: pulmonary delivery. As to the method:
Mice were pretreated with L3T4 anti-CD4 antibody for a minimum of 2 weeks (2 injections/week, 0.2 mg/injection) or until the peripheral CD4 count was reduced by at least about 50%.
An aqueous formulation was prepared containing 1 mg/ml 3-O-deacylated monophosphoryl lipid A and 108 μg/ml of the surfactant DPPC in water. The formulation was administered intratracheally via a small cannula at −24 hours and then twice a week for the remainder of the study. The concentrations administered are indicated below in Table 1. One million P. carinii were inoculated trans-tracheally at day 0. Twice-weekly treatments were continued for 7 weeks, lungs were removed and impression smears made. Slides were stained with Giemsa and silver and scored for the presence of P. carinni as follows.

Take “3-O-deacylated monophosphoryl lipid A [MPL]”: the “FACS analysis of cells lavaged from the lungs” value was “displayed markers for activated neutrophils but was unremarkable for an influx of leukocytes”.

The values are drawn from patent US8318697B2, “Prophylactic and therapeutic treatment of infectious and other diseases with mono- and disaccharide-based compounds” (Corixa Corporation, priority 2000, dated 2012).
